# Data from PubChem BioAssay AID256 (DTP/NCI, 2004).
# The list is a part of this screen's results and no random one: it gathers tests that were run many times, whatever their T/C, doses with no T/C, and many T/C values between a quarter and a half above the control. Further doses and runs are listed elsewhere. T/C: endpoint of the treated group in % of that of the vehicle group. Some entries give survivors of the animals treated and no T/C: the source holds a T/C of zero for them, seemingly a mark for toxic or unscored doses. Some doses without a T/C left all or most animals alive at the check, yet need not have been tolerated: the source hardly ever lists a survival T/C far under the control, and the zero likely stands for such cases as well. Survivors were counted at the toxicity check, usually on the fifth day, unless a day is given; later deaths do not show. Schedules are NCI's codes, taken here to give the interval after Q, in days (D) or hours (H), and the number of doses after X. Some molecules as drawn cover several salts, stereoisomers or complexes of the source; a dose is that of the sample tested. For survival time, this PubChem deposit counts one and a half times the control or more as active, and values a quarter to a half above the control carry no call in these data; other NCI protocols may use other cut-offs. Some entries were tested several times; their values stand side by side, smallest first. Some T/C values are followed by the survivors on the day toxicity was checked, most often the fifth; where none is given, no animal had died by that day.
# System: CD2F1 mice, L1210 leukemia ip, survival T/C
# Experiment: NCI In Vivo Anticancer Drug Screen. Data for tumor model L1210 Leukemia (intraperitoneal) in CD2F1 (CDF1) mice
# Settings: higher T/C = longer survival
# In short: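 Antitumor effect is scored in animals hosting a serially transplanted tumor. Values compare compound-dosed animals against vehicle-only controls as a simple quotient.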
# [1] = T/C endpoint: mean survival time, dose: 100.0 mg/kg/injection, schedule: Q04DX003 (ip), vehicle: saline with Tween-80
# [2] = T/C endpoint: mean survival time, dose: 200.0 mg/kg/injection, schedule: Q04DX003 (ip), vehicle: saline with Tween-80
# [3] = T/C endpoint: mean survival time, dose: 400.0 mg/kg/injection, schedule: Q04DX003 (ip), vehicle: saline with Tween-80
compound,measurement,setting,value
Cc1nc(N=C(N)N)nc2ccc(Cl)cc12,survivor count,"T/C endpoint: mean survival time, dose: 37.5 mg/kg/injection, schedule: Q01DX009 (ip), vehicle: saline",4 of 6
same,survivor count,"T/C endpoint: mean survival time, dose: 75.0 mg/kg/injection, schedule: Q01DX009 (ip), vehicle: saline",2 of 6
CCC[CH2][Sn]1([CH2]CCC)[O]OC(c2ccc(C(=O)OCC)cc2)[O]1 (configuration not stated),survivor count,"T/C endpoint: mean survival time, dose: 6.25 mg/kg/injection, schedule: Q04DX002 (ip), vehicle: other",3 of 3
same,survivor count,"T/C endpoint: mean survival time, dose: 100.0 mg/kg/injection, schedule: Q04DX002 (ip), vehicle: other",0 of 3
same,survivor count,"T/C endpoint: mean survival time, dose: 200.0 mg/kg/injection, schedule: Q04DX002 (ip), vehicle: other",0 of 3
same,survivor count,"T/C endpoint: mean survival time, dose: 400.0 mg/kg/injection, schedule: Q04DX002 (ip), vehicle: other",0 of 3
O=c1cc(C(F)(F)F)[nH]c2ccc(F)cc12,survivor count,[1],1 of 6
same,survivor count,[2],0 of 6
same,survivor count,[3],0 of 6
COc1cc(NCc2ccc3nc(N)nc(N)c3c2C)cc(OC)c1OC,T/C,"T/C endpoint: mean survival time, dose: 7.9 mg/kg/injection, schedule: Q01DX009 (ip), vehicle: Klucel (hydroxypropylcellulose) (HPC)",137 % of control
same,T/C,"T/C endpoint: mean survival time, dose: 8.64 mg/kg/injection, schedule: Q01DX009 (ip), vehicle: other",145 % of control
same,T/C,"T/C endpoint: mean survival time, dose: 10.0 mg/kg/injection, schedule: Q01DX009 (ip), vehicle: sodium bicarbonate",134 and 136 % of control
same,T/C,"T/C endpoint: mean survival time, dose: 11.9 mg/kg/injection, schedule: Q01DX009 (ip), vehicle: Klucel (hydroxypropylcellulose) (HPC)",149 % of control
same,T/C,"T/C endpoint: mean survival time, dose: 14.4 mg/kg/injection, schedule: Q01DX009 (ip), vehicle: other",145 % of control
same,T/C,"T/C endpoint: mean survival time, dose: 15.8 mg/kg/injection, schedule: Q01DX009 (ip), vehicle: water",133 % of control
same,T/C,"T/C endpoint: mean survival time, dose: 23.7 mg/kg/injection, schedule: Q01DX009 (ip), vehicle: water",139 % of control
same,T/C,"T/C endpoint: mean survival time, dose: 35.6 mg/kg/injection, schedule: Q01DX009 (ip), vehicle: water",146 % of control
same,T/C,"T/C endpoint: mean survival time, dose: 53.3 mg/kg/injection, schedule: Q01DX009 (ip), vehicle: water",135 % of control
same,T/C,"T/C endpoint: mean survival time, dose: 60.0 mg/kg/injection, schedule: Q04DX003 (ip), vehicle: sodium bicarbonate",144 % of control
same,T/C,"T/C endpoint: mean survival time, dose: 120.0 mg/kg/injection, schedule: Q01DX009 (ip), vehicle: water",139 % of control
same,T/C,"T/C endpoint: median survival time, dose: 7.5 mg/kg/injection, schedule: Q01DX005 (ip), vehicle: Klucel (hydroxypropylcellulose) (HPC)",130 % of control
same,T/C,"T/C endpoint: median survival time, dose: 10.0 mg/kg/injection, schedule: Q01DX009 (ip), vehicle: sodium bicarbonate",125 and 134 % of control
same,T/C,"T/C endpoint: median survival time, dose: 12.0 mg/kg/injection, schedule: Q01DX009 (ip), vehicle: distilled water + Tween-80",137 % of control
same,T/C,"T/C endpoint: median survival time, dose: 12.5 mg/kg/injection, schedule: Q01DX009 (ip), vehicle: water",129 and 136 % of control
same,T/C,"T/C endpoint: median survival time, dose: 15.0 mg/kg/injection, schedule: Q01DX005 (ip), vehicle: Klucel (hydroxypropylcellulose) (HPC)",144 % of control
same,T/C,"T/C endpoint: median survival time, dose: 18.0 mg/kg/injection, schedule: Q01DX009 (ip), vehicle: distilled water + Tween-80",139 % of control
same,T/C,"T/C endpoint: median survival time, dose: 20.0 mg/kg/injection, schedule: Q01DX009 (ip), vehicle: water",139 % of control
same,T/C,"T/C endpoint: median survival time, dose: 25.0 mg/kg/injection, schedule: Q01DX009 (ip), vehicle: water",138 % of control
same,T/C,"T/C endpoint: median survival time, dose: 27.0 mg/kg/injection, schedule: Q01DX009 (ip), vehicle: distilled water + Tween-80",143 % of control [9 of 10 alive]
same,T/C,"T/C endpoint: median survival time, dose: 30.0 mg/kg/injection, schedule: Q01DX009 (ip), vehicle: water",146 % of control
same,T/C,"T/C endpoint: median survival time, dose: 40.0 mg/kg/injection, schedule: Q01DX009 (ip), vehicle: Klucel (hydroxypropylcellulose) (HPC)",129 % of control
same,survivor count,"T/C endpoint: median survival time, dose: 120.0 mg/kg/injection, schedule: Q01DX005 (ip), vehicle: Klucel (hydroxypropylcellulose) (HPC)",6 of 6
same,survivor count,"T/C endpoint: median survival time, dose: 200.0 mg/kg/injection, schedule: Q01DX009 (ip), vehicle: water",0 of 6
Cc1ccc(S(=O)(=O)Nc2ccccc2N(CCN(CCOS(=O)(=O)c2ccc(C)cc2)S(=O)(=O)c2ccc(C)cc2)S(=O)(=O)c2ccc(C)cc2)cc1,survivor count,[1],3 of 3
same,survivor count,[3],3 of 3
OCCN=Cc1ccccc1,survivor count,[2],4 of 6
same,survivor count,[3],1 of 6
